Values quoted from earlier work as cited in patent US4613590A, “Amino D-manno-2-octulopyranosidonate containing compounds, pharmaceutical compositions and method of use” (Abbott Laboratories, priority 1985, dated 1986).
The name of at least one read-out is uncertain.

System: mutants with deficiencies in LPS biosynthesis
Settings: cited from earlier work

Compound | Increase in activity against LPS-deficient mutants versus normal gram-negative organisms
CN[C@H](CC(C)C)C(=O)N[C@H]1C(=O)N[C@@H](CC(N)=O)C(=O)N[C@H]2C(=O)N[C@H]3C(=O)N[C@H](C(=O)N[C@H](C(=O)O)c4cc(O)cc(O)c4-c4cc3ccc4O)[C@H](O)c3ccc(c(Cl)c3)Oc3cc2cc(c3O[C@@H]2O[C@H](CO)[C@@H](O)[C@H](O)[C@H]2O[C@H]2C[C@](C)(N)[C@H](O)[C@H](C)O2)Oc2ccc(cc2Cl)[C@H]1O [vancomycin] | about 100 fold
CC[C@H]1OC(=O)[C@H](C)[C@@H](O[C@H]2C[C@@](C)(OC)[C@@H](O)[C@H](C)O2)[C@H](C)[C@@H](O[C@@H]2O[C@H](C)C[C@H](N(C)C)[C@H]2O)[C@](C)(O)C[C@@H](C)C(=O)[C@H](C)[C@@H](O)[C@]1(C)O [erythromycin] | about 100 fold
